From article PMC10983951
No constants are given. Whether binding was seen depends on the method and setting. Binding seen in cells or lysates may run through a third protein. A yes stands for co-enrichment or nearness to the bait. Other partners may have been found.

Chains of the proteins cited; added tags and fusions are not shown.
UniProt A0A125YP06: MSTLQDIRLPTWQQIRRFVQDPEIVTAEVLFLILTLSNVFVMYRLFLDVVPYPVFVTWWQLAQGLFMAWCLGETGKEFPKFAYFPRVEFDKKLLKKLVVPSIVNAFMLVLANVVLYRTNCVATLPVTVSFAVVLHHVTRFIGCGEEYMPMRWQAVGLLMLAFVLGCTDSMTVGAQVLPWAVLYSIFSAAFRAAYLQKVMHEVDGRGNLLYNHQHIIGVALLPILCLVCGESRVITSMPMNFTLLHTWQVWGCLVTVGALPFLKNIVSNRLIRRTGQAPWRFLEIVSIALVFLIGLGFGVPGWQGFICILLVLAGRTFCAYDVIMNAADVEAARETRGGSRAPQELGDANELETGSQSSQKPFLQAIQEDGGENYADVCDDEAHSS

Molecular target: FLAG-Myosin-A WT (complement) (Toxoplasma gondii) (UniProt O00934)
Experiment: proximity labelling; Biotinylation by Antibody Recognition (BAR): fixed, permeabilized FLAG-MyoA parasites, primary antibody and HRP-conjugated secondary antibody, biotin-phenol and hydrogen peroxide; streptavidin beads, mass spectrometry; parental strain as control

| Substance | binding |
| --- | --- |
| GAP40 (from UniProt A0A125YP06 1-385) | binds |
| calcium-dependent protein kinase CDPK2a (from UniProt S8F5F3) (enzyme) | binds |
